From publication PMC12238589
These are yes or no findings as the source states them, for the method shown. In cells and extracts the contact can be indirect. These calls come from enrichment with a bait or labelling near it, and not all partners need be listed. Each block holds one molecule with its values, some of them ahead of it.

Protein sequences, listed by entry. Tags and fused reporters are not part of them. Lines headed by an entry give the natural chain unless they say otherwise; changes in a name come on top.
UniProt Q5S007: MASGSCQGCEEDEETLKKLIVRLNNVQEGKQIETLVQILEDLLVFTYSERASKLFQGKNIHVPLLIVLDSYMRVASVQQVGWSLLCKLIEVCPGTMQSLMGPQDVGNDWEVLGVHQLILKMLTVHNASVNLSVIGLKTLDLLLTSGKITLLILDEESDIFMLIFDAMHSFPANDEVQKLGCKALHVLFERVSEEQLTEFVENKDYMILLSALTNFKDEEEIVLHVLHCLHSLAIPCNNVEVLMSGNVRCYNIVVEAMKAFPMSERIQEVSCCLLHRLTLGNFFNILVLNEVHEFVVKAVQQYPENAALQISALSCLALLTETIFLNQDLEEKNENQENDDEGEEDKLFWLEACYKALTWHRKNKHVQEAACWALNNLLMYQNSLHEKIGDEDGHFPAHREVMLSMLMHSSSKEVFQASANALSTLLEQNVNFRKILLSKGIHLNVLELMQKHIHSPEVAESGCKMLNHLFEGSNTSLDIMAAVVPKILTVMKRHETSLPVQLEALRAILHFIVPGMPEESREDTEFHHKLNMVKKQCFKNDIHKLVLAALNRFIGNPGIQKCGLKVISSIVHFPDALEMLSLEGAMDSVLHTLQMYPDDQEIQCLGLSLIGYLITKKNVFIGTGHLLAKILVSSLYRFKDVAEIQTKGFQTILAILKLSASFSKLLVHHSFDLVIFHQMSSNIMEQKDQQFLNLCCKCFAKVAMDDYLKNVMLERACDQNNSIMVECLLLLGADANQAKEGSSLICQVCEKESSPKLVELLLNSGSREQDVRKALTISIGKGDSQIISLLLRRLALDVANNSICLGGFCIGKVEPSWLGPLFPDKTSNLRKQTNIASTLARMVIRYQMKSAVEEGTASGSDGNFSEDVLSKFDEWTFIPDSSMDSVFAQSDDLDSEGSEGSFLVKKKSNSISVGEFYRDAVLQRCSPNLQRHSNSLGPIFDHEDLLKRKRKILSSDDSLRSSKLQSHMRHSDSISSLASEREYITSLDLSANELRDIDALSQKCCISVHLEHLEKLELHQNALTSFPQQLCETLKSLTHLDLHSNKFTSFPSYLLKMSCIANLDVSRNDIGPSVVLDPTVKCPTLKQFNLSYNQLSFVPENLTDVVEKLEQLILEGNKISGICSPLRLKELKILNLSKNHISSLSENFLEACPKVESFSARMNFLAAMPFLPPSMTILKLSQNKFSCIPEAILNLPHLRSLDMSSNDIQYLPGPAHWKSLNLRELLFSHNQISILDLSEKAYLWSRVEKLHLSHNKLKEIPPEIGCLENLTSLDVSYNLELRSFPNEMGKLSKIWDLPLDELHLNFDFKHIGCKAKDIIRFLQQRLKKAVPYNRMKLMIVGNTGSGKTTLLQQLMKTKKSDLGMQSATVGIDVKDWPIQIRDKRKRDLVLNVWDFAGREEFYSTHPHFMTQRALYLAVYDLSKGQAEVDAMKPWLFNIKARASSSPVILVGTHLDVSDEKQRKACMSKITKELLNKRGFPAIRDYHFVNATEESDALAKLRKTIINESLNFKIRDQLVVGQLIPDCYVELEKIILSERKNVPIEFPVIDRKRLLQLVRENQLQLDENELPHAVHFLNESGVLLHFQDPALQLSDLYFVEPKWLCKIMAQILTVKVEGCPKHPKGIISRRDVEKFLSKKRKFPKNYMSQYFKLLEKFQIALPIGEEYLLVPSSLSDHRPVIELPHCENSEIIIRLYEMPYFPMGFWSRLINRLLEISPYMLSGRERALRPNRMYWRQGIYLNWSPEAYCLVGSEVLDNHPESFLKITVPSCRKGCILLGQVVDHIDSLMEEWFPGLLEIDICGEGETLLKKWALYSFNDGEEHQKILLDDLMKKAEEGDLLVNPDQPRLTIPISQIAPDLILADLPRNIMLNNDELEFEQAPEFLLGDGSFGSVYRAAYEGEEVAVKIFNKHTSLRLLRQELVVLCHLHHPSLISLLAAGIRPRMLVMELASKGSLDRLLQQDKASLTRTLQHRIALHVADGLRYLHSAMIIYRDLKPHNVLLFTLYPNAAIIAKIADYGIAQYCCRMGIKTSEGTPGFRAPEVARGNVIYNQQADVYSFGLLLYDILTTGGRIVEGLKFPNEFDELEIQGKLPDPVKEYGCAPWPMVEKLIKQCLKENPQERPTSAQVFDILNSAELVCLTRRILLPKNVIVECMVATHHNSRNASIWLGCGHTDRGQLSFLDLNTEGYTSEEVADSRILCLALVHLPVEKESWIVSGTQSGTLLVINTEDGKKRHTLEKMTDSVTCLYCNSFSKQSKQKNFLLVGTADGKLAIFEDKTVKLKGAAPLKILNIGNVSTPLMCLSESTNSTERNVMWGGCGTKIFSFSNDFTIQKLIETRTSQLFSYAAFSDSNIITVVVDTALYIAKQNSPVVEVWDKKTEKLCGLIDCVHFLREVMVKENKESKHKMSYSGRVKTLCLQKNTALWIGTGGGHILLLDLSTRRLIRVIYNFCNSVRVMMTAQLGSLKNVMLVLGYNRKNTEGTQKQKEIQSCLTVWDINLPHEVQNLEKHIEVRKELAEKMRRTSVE
UniProt Q15286: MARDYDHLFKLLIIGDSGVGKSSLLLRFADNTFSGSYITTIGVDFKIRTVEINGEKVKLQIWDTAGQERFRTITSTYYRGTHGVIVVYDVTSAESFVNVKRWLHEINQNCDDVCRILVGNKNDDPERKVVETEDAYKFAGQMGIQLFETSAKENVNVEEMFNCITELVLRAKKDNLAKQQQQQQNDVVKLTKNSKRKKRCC
UniProt P61006: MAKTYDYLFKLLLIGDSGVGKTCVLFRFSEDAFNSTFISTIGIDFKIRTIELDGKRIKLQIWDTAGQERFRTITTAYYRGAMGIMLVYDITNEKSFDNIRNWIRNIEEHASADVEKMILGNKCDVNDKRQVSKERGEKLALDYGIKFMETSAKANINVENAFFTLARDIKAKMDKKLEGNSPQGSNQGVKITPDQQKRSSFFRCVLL
UniProt P23258: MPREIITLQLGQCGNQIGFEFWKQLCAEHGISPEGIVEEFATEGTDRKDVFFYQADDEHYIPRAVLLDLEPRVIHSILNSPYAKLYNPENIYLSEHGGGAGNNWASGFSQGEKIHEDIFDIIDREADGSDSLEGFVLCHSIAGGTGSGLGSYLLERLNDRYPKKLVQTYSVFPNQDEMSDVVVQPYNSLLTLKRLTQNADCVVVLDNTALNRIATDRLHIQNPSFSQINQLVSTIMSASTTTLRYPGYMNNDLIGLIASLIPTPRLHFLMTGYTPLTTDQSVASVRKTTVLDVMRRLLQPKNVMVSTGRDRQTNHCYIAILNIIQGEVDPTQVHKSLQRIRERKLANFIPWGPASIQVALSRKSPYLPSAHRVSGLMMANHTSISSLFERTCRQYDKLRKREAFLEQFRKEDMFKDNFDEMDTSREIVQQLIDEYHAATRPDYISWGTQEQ

Key:
FLAG-APEX2-WT-LRRK2 = FLAG-APEX2-WT-LRRK2 (UniProt Q5S007); assay: proximity labelling; APEX2 fused N-terminally to LRRK2 in transfected HEK293T cells; 500 µM biotinyl tyramide 30 min, 1 mM H2O2 1 min; biotinylated proteins quantified by whole-cell proteomics (LC-MS/MS); cells with or without MLi2 (250 nM, 30 min); FLAG-APEX2 alone as control
FLAG-APEX2-G2019S-LRRK2 = FLAG-APEX2-G2019S-LRRK2 (UniProt Q5S007); assay: as above

- binding (FLAG-APEX2-WT-LRRK2): binds
- binding (FLAG-APEX2-G2019S-LRRK2): binds
Molecule: Rab35 (from UniProt Q15286 1-201)

- binding (FLAG-APEX2-WT-LRRK2): binds
Molecule: Rab8a (from UniProt P61006 1-207)

- binding (FLAG-APEX2-WT-LRRK2): binds
- binding (FLAG-APEX2-G2019S-LRRK2): binds
Molecule: γ-tubulin (from UniProt P23258)

- binding (FLAG-APEX2-WT-LRRK2): binds
- binding (FLAG-APEX2-G2019S-LRRK2): binds
B1: Rab7L1 (protein, UniProt O14966 1-203)
chain: MGSRDHLFKVLVVGDAAVGKTSLVQRYSQDSFSKHYKSTVGVDFALKVLQWSDYEIVRLQLWDIAGQERFTSMTRLYYRDASACVIMFDVTNATTFSNSQRWKQDLDSKLTLPNGEPVPCLLLANKCDLSPWAVSRDQIDRFSKENGFTGWTETSVKENKNINEAMRVLIEKMMRNSTEDIMSLSTQGDYINLQTKSSSWSCC
